Results from doi:10.1101/2025.10.08.681084.

Target: K13-GFP (Plasmodium falciparum Kelch13 fused to GFP) (Plasmodium falciparum)
Assay: co-IP

B1: Nuclear factor erythroid 2-related factor 2 (Nrf2), endogenous in Du145 cells (protein, UniProt Q16236 1-605)
chain: MMDLELPPPGLPSQQDMDLIDILWRQDIDLGVSREVFDFSQRRKEYELEKQKKLEKERQEQLQKEQEKAFFAQLQLDEETGEFLPIQPAQHIQSETSGSANYSQVAHIPKSDALYFDDCMQLLAQTFPFVDDNEVSSATFQSLVPDIPGHIESPVFIATNQAQSPETSVAQVAPVDLDGMQQDIEQVWEELLSIPELQCLNIENDKLVETTMVPSPEAKLTEVDNYHFYSSIPSMEKEVGNCSPHFLNAFEDSFSSILSTEDPNQLTVNSLNSDATVNTDFGDEFYSAFIAEPSISNSMPSPATLSHSLSELLNGPIDVSDLSLCKAFNQNHPESTAEFNDSDSGISLNTSPSVASPEHSVESSSYGDTLLGLSDSEVEELDSAPGSVKQNGPKTPVHSSGDMVQPLSPSQGQSTHVHDAQCENTPEKELPVSPGHRKTPFTKDKHSSRLEAHLTRDELRAKALHIPFPVEKIINLPVVDFNEMMSKEQFNEAQLALIRDIRRRGKNKVAAQNCRKRKLENIVELEQDLDHLKDEKEKLLKEKGENDKSLHLLKKQLSTLYLEVFSMLRDEDGKPYSPSEYSLQQTRDGNVFLVPKSKKPDVKKN
  binding: binds

Results are given in words; binding and its absence hold for the method and conditions named. In cells and extracts the contact can be indirect. A result given as binding can be weak or reduced; the word gives no strength.
